From the supplement of paper PMC10849652
Some of the results follow.

By UniProt entry, the sequences of proteins in these tests, tags left out. Where a name states a change or a piece, a line headed by the entry shows the natural chain unless it says otherwise.
UniProt A6NHL2: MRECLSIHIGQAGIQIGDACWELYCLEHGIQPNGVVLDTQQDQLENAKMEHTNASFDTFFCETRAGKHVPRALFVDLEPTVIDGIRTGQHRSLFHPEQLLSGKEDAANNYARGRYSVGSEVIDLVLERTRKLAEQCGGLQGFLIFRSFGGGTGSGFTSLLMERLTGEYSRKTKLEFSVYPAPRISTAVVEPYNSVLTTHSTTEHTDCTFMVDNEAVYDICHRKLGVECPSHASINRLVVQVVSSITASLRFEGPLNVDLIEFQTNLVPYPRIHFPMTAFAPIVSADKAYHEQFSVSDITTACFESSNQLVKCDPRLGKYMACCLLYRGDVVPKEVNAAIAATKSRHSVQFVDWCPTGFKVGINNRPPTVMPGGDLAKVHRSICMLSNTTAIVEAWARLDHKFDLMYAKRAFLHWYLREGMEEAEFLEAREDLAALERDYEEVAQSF
UniProt Q9H3M7: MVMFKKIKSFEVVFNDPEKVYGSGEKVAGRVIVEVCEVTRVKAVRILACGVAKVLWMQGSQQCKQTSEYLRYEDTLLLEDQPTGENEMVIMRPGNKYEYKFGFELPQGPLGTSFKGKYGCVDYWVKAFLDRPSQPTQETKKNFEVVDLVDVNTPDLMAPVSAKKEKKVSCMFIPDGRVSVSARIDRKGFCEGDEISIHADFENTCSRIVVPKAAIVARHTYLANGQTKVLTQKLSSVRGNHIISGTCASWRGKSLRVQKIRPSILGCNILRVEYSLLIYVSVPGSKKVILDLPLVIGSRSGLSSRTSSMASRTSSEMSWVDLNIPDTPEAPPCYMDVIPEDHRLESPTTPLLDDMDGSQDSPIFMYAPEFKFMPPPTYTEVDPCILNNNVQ
UniProt Q969T4: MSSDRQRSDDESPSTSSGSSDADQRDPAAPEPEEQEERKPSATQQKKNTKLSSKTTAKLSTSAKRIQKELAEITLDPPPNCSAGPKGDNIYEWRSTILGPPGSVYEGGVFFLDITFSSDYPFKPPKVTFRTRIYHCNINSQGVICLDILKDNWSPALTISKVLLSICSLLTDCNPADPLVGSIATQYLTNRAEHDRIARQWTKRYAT
UniProt Q8WVY7: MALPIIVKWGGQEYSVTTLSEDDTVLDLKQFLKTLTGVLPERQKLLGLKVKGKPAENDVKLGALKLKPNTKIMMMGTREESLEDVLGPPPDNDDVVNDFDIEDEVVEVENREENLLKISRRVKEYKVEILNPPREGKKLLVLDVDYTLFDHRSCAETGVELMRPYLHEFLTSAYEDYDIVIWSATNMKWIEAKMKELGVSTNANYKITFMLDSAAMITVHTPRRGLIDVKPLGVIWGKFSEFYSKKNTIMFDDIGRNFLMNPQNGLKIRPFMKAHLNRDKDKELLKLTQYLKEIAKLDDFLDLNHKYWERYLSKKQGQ
UniProt P68371, whole entry, looked up: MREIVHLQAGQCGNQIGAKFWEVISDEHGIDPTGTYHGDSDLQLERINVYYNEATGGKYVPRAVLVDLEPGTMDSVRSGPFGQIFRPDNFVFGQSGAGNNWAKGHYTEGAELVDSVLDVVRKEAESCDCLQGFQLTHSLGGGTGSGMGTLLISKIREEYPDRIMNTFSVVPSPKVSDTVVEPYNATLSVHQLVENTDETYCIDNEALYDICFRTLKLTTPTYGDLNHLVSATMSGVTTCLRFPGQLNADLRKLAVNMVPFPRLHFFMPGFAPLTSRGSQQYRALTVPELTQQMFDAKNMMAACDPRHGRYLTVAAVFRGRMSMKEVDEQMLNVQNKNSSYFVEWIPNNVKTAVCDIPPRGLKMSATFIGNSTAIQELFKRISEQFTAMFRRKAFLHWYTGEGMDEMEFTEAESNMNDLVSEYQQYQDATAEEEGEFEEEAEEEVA
UniProt P10599: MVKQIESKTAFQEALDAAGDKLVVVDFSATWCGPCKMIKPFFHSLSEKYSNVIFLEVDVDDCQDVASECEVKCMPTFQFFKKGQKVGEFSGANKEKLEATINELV
UniProt O14562: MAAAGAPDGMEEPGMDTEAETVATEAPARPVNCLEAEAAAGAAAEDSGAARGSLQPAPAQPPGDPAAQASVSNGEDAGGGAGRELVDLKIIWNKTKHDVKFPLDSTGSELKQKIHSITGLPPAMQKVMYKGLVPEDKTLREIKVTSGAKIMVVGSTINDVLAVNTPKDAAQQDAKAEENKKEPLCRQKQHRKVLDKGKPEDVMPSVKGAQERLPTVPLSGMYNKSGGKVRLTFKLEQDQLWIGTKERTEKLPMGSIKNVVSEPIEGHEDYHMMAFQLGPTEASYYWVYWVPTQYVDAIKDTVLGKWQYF
UniProt Q13454: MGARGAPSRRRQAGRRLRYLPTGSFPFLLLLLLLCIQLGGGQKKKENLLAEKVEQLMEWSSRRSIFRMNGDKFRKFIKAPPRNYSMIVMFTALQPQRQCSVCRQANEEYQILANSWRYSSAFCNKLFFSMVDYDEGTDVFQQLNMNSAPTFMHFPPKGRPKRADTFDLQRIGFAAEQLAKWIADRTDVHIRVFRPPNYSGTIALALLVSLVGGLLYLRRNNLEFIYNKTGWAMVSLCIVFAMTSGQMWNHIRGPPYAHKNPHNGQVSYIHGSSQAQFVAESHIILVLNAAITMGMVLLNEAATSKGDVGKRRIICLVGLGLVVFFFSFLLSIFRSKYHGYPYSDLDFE
UniProt Q04323: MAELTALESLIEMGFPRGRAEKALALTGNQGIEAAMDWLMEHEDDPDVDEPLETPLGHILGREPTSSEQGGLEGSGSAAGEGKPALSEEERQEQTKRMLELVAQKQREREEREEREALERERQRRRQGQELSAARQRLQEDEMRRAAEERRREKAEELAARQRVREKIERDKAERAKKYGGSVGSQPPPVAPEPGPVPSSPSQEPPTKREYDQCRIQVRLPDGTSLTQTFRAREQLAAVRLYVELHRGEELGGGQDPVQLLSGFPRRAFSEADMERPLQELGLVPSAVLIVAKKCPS
UniProt Q9Y5K5, whole entry, looked up: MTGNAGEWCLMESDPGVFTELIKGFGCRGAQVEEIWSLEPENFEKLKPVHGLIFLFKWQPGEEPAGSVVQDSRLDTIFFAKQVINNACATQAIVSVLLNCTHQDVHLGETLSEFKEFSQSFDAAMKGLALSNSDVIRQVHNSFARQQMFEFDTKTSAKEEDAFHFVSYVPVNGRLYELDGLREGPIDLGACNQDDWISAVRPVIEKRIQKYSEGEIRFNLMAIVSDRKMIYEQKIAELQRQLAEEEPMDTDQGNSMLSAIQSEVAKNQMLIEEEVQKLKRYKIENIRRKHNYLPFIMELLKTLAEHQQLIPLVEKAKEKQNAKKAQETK
UniProt P61088: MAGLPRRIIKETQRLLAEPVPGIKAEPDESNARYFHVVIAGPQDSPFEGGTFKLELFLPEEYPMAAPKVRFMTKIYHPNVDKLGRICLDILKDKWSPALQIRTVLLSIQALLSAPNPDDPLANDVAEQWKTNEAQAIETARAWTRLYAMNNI
UniProt Q7Z6J8: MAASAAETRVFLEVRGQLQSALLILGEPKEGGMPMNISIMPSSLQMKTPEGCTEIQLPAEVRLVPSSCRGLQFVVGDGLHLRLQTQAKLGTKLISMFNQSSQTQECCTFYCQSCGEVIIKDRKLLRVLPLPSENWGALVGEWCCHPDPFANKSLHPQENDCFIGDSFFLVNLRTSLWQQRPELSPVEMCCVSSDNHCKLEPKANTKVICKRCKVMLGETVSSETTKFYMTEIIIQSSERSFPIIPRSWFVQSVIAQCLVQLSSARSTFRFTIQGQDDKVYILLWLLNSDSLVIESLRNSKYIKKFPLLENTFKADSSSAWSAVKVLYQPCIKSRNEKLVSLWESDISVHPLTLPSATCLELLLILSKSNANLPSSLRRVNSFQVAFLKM
UniProt Q9UBT2: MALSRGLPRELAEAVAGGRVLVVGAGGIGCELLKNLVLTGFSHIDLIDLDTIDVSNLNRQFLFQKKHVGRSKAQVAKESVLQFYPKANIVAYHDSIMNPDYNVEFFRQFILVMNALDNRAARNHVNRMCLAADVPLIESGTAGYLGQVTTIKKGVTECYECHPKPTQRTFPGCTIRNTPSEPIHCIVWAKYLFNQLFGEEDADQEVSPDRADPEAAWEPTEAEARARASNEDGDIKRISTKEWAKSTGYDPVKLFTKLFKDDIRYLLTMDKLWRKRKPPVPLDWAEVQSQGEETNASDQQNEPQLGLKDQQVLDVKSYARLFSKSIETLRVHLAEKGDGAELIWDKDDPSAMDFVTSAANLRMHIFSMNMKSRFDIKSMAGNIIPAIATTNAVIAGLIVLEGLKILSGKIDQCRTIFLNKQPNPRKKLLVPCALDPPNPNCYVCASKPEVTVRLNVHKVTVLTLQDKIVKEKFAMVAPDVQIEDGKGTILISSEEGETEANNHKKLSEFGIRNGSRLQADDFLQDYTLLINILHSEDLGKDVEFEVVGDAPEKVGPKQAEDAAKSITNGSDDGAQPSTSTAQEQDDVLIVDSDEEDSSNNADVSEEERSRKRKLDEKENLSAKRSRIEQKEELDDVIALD
UniProt P62256: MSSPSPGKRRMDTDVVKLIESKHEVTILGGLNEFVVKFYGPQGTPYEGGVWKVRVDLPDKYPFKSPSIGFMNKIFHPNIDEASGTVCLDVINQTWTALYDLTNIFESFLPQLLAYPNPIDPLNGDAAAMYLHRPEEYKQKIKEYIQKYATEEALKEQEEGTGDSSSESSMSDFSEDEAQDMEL
UniProt P51965: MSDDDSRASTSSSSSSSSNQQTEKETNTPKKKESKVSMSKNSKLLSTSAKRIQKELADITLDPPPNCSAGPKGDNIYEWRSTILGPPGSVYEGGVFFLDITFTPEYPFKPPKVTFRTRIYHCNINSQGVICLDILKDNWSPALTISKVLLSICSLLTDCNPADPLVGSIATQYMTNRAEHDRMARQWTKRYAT
UniProt P26368, whole entry, looked up: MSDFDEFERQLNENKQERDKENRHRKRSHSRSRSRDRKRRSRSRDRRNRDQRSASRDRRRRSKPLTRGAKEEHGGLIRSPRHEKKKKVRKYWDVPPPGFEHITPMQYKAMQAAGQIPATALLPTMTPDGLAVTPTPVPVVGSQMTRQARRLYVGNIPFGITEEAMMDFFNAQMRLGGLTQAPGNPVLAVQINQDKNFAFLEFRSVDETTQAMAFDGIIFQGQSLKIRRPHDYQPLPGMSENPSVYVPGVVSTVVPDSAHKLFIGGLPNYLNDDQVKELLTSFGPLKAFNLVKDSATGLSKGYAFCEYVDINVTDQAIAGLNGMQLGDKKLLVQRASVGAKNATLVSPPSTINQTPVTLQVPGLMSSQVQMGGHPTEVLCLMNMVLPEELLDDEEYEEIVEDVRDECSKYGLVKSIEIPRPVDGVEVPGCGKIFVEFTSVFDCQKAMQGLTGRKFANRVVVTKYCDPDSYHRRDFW
UniProt O14933: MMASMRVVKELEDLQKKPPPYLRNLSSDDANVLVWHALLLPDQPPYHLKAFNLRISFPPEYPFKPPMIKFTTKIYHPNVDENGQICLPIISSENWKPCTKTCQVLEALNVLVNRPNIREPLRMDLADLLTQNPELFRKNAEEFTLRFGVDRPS
UniProt P83876: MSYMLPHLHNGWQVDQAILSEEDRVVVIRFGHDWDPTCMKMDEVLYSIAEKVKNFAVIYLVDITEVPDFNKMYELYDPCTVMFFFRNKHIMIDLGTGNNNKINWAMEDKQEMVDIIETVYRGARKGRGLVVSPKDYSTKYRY
UniProt P17480: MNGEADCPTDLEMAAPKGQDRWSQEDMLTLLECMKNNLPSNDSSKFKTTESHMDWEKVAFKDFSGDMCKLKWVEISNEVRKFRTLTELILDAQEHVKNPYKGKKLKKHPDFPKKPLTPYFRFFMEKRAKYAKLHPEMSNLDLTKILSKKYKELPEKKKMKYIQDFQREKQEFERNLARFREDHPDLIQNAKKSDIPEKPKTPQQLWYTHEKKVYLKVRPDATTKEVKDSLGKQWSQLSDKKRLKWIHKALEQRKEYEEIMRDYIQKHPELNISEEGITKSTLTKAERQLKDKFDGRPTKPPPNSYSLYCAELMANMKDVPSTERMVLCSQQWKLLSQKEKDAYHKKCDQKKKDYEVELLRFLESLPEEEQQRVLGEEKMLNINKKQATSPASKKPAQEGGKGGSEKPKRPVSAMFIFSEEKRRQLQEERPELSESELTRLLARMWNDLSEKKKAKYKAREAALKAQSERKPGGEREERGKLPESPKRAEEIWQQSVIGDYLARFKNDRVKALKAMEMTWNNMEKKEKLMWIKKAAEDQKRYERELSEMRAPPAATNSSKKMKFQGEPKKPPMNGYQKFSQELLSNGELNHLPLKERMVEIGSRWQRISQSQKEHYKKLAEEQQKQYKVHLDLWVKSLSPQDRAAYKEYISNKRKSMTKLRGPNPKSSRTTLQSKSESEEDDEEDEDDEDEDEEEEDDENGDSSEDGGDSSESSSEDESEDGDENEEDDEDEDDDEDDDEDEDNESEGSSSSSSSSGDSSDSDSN
UniProt Q01081: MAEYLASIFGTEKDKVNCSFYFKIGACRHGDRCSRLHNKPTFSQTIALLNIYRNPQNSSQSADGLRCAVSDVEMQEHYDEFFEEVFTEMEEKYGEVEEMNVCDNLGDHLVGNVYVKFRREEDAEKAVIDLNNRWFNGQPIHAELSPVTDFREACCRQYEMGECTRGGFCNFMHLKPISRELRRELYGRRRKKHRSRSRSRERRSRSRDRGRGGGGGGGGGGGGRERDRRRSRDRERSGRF

Columns and labels:
Assay in all cases: log2 fold change, soluble protein after heating vs DMSO (PISA); higher = thermal stabilisation; K562 lysate, 10 uM; active = over 0.2 and 3.5 SD of the protein, either way, in both replicates (recomputed)
[1] = compound: C1=CC=C(C=C1)[C@H](COC2=CC3=C(C=C2)NC(=O)N3)NC(=O)C4=CC=CN(C4=O)CC5=CC(=C(C=C5)F)F
In short: (§1)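 Soluble protein was defined as the supernatant remaining after 21,000xg for 90 min, following pooling of heated aliquots and adjustment to 0.5% NP-40 at 4°C. Before that, crude K562 extract at 1 mg/mL protein in PBS pH 7.4 with 1 mM MgCl2 was treated with 10 μM compound for 30 min and heated for 3 min across 48°C-58°C. Quantification used TMTpro 16plex LC-MS/MS with channel sums equalised, and values are log-two fold changes in thermal stability relative to solvent controls from duplicates.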

[2] = compound: CC1=C(SC2=C1C(=N[C@H](C3=NN=C(N32)C)CC(=O)N)C4=CC=C(C=C4)Cl)C
In short: as §1

[3] = compound: CC1=C2C(=CC=C1)N=C(N(C2=O)C3=CC=CC=C3C)CN4C=NC5=C(N=CN=C54)N
In short: as §1

[4] = compound: Cc1sc2c(c1C)C(c1ccc(Cl)cc1)=N[C@@H](CC(=O)OC(C)(C)C)c1nnc(C)n1-2
In short: as §1

[5] = compound: c1ccc([C@@H]2C[C@H]2NC2CCNCC2)cc1
In short: as §1

Measured: log2 fold change

TWF1 (UniProt Q12792)
inactive: [1] -0.003 | [2] 0.02 | [3] 0.016 | [4] -0.03 | [5] 0.074

UBAC1 (UniProt Q9BSL1)
inactive: [1] 0.014 | [2] -0.025 | [3] -0.024 | [4] -0.045 | [5] 0.021

UBE2O (UniProt Q9C0C9)
inactive: [1] 0.007 | [2] 0.015 | [3] -0.003 | [4] -0.033 | [5] -0.083

TUBAL3 (UniProt A6NHL2)
inactive: [1] -0.034 | [2] -0.051 | [3] 0.045 | [4] -0.189 | [5] -0.255

TXNIP (UniProt Q9H3M7)
inactive: [1] 0.056 | [2] 0.005 | [3] 0.029 | [4] 0.016 | [5] 0.087

UBE2E3 (UniProt Q969T4)
inactive: [1] 0.012 | [2] 0.001 | [3] 0.001 | [4] 0.002 | [5] -0.028

UBLCP1 (UniProt Q8WVY7)
inactive: [1] 0.013 | [2] -0.043 | [3] -0.092 | [4] 0 | [5] 0.057

TUT1 (UniProt Q9H6E5)
inactive: [1] -0.029 | [2] 0.013 | [3] 0.012 | [4] 0.098 | [5] -0.019

UBQLN4 (UniProt Q9NRR5)
inactive: [1] 0.006 | [2] -0.106 | [3] -0.046 | [4] -0.035 | [5] 0.014

UBAP2L isoform 1 (UniProt Q14157)
inactive: [1] -0.101 | [2] -0.087

TUBB1 (UniProt Q9H4B7)
inactive: [1] -0.005 | [2] 0.019 | [3] 0.008 | [4] 0.063 | [5] 0.087

TXNDC17 (UniProt Q9BRA2)
inactive: [1] -0.059 | [2] -0.052 | [3] -0.014 | [4] 0.018 | [5] -0.006

TUBB3 (UniProt Q13509)
inactive: [1] 0.014 | [2] -0.005 | [3] 0.008 | [4] 0.008 | [5] 0.01

TUBGCP3 (UniProt Q96CW5)
inactive: [1] -0.007 | [2] -0.004 | [3] 0.011 | [4] 0.008 | [5] 0.037

TUBB2A (UniProt Q13885)
inactive: [1] 0.017 | [2] 0.01 | [3] 0 | [4] 0.003 | [5] -0.015

UBQLN2 (UniProt Q9UHD9)
inactive: [1] -0.113 | [2] -0.134 | [3] -0.026 | [4] -0.05 | [5] -0.014

TUBB4B (UniProt P68371)
inactive: [1] 0.001 | [2] 0.03 | [3] 0.018 | [4] 0.042 | [5] 0.049

TUFM (UniProt P49411)
inactive: [1] 0.015 | [2] 0.051 | [3] 0.023 | [4] 0.071 | [5] 0.083

UBE2Q1 (UniProt Q7Z7E8)
inactive: [1] 0.021 | [2] 0.003 | [3] 0.013 | [4] -0.074 | [5] -0.037

UBP1 (UniProt Q9NZI7)
inactive: [1] 0.082 | [2] -0.057 | [3] -0.018 | [4] 0.009 | [5] 0.056

TXN (UniProt P10599)
inactive: [1] 0.045 | [2] -0.036 | [3] 0 | [4] 0.031 | [5] -0.065

UBFD1 (UniProt O14562)
inactive: [1] 0.007 | [2] 0.024 | [3] -0.007 | [4] -0.015 | [5] -0.024

TWF2 (UniProt Q6IBS0)
inactive: [1] 0.023 | [2] 0.004 | [3] -0.023 | [4] -0.012 | [5] -0.027

UBXN2A (UniProt P68543)
inactive: [1] -0.203 | [2] 0.009 | [3] -0.051 | [4] -0.021 | [5] -0.075

UBAC2 (UniProt Q8NBM4)
inactive: [1] -0.023 | [2] -0.128 | [3] 0.094 | [4] -0.077 | [5] -0.095

TUSC3 isoform 2 (UniProt Q13454)
inactive: [1] -0.012 | [2] -0.006 | [3] 0.032 | [4] -0.007 | [5] -0.082

U2SURP (UniProt O15042)
inactive: [1] -0.003 | [2] 0.012 | [3] 0.041 | [4] 0.065 | [5] 0.025

TWNK (UniProt Q96RR1)
inactive: [1] 0.019 | [2] -0.066 | [3] 0.044 | [4] -0.279 | [5] 0.49

TUBE1 (UniProt Q9UJT0)
inactive: [1] -0.019 | [2] 0.003 | [3] 0.019 | [4] -0.064 | [5] 0.107

TUBB6 (UniProt Q9BUF5)
inactive: [1] -0.005 | [2] 0.033 | [3] 0.02 | [4] 0.017 | [5] 0.027

UBE3A (UniProt Q05086)
inactive: [1] -0.004 | [2] 0.007 | [3] -0.006 | [4] -0.017 | [5] -0.029

UBXN1 (UniProt Q04323)
inactive: [1] 0.017 | [2] 0.017 | [3] -0.003 | [4] 0.035 | [5] -0.025

UCHL5 isoform 3 (UniProt Q9Y5K5)
inactive: [1] -0.001 | [2] 0.033 | [3] 0.01 | [4] 0.015 | [5] 0.029

UBE2B (UniProt P63146)
inactive: [1] -0.023 | [2] 0.058 | [3] -0.034 | [4] 0.005 | [5] -0.01

UBE2N (UniProt P61088)
inactive: [1] -0.004 | [2] -0.016 | [3] -0.027 | [4] 0.001 | [5] -0.001

12 consecutive records already listed, quoted:
TXN (UniProt P10599)
inactive: [1] 0.045 | [2] -0.036 | [3] 0 | [4] 0.031 | [5] -0.065

UBFD1 (UniProt O14562)
inactive: [1] 0.007 | [2] 0.024 | [3] -0.007 | [4] -0.015 | [5] -0.024

TWF2 (UniProt Q6IBS0)
inactive: [1] 0.023 | [2] 0.004 | [3] -0.023 | [4] -0.012 | [5] -0.027

UBXN2A (UniProt P68543)
inactive: [1] -0.203 | [2] 0.009 | [3] -0.051 | [4] -0.021 | [5] -0.075

UBAC2 (UniProt Q8NBM4)
inactive: [1] -0.023 | [2] -0.128 | [3] 0.094 | [4] -0.077 | [5] -0.095

TUSC3 isoform 2 (UniProt Q13454)
inactive: [1] -0.012 | [2] -0.006 | [3] 0.032 | [4] -0.007 | [5] -0.082

U2SURP (UniProt O15042)
inactive: [1] -0.003 | [2] 0.012 | [3] 0.041 | [4] 0.065 | [5] 0.025

TWNK (UniProt Q96RR1)
inactive: [1] 0.019 | [2] -0.066 | [3] 0.044 | [4] -0.279 | [5] 0.49

TUBE1 (UniProt Q9UJT0)
inactive: [1] -0.019 | [2] 0.003 | [3] 0.019 | [4] -0.064 | [5] 0.107

TUBB6 (UniProt Q9BUF5)
inactive: [1] -0.005 | [2] 0.033 | [3] 0.02 | [4] 0.017 | [5] 0.027

UBE3A (UniProt Q05086)
inactive: [1] -0.004 | [2] 0.007 | [3] -0.006 | [4] -0.017 | [5] -0.029

UBXN1 (UniProt Q04323)
inactive: [1] 0.017 | [2] 0.017 | [3] -0.003 | [4] 0.035 | [5] -0.025

(cont.)

TUBA1C (UniProt Q9BQE3)
inactive: [1] 0.043 | [2] 0.03 | [3] 0.023 | [4] 0.003 | [5] -0.006

UBE3D (UniProt Q7Z6J8)
inactive: [1] -0.012 | [2] 0.014 | [3] 0.022 | [4] 0.021 | [5] -0.029

UBE4B isoform 4 (UniProt O95155)
inactive: [1] 0.009 | [2] 0.004 | [3] -0.001 | [4] -0.015 | [5] -0.007

UBAP2 (UniProt Q5T6F2)
inactive: [1] -0.019 | [2] -0.003 | [3] -0.008 | [4] -0.022 | [5] -0.119

UBR4 (UniProt Q5T4S7)
inactive: [1] -0.012 | [2] -0.008 | [3] 0.012 | [4] 0.012 | [5] -0.003

UBL7 (UniProt Q96S82)
inactive: [1] -0.062 | [2] -0.005 | [3] -0.036 | [4] 0.014 | [5] 0.053

UBA2 (UniProt Q9UBT2)
inactive: [1] 0.02 | [2] 0.027 | [3] -0.01 | [4] -0.003 | [5] 0.013

UBAP2L isoform 5 (UniProt Q14157)
inactive: [1] -0.047 | [2] 0.049 | [3] -0.022 | [4] 0.029 | [5] -0.004

UBE2H (UniProt P62256)
inactive: [1] 0.024 | [2] 0.02 | [3] 0.012 | [4] -0.046 | [5] 0.095

UBE2E1 (UniProt P51965)
inactive: [1] 0.02 | [2] 0.009 | [3] -0.099 | [4] -0.1 | [5] 0.023

UBAP1 (UniProt Q9NZ09)
inactive: [1] 0.024 | [2] -0.094 | [3] -0.032 | [4] 0.013 | [5] -0.028

U2AF2 (UniProt P26368)
inactive: [1] 0.021 | [2] -0.009 | [3] 0.005 | [4] 0.042 | [5] 0.001

UBC (UniProt P0CG48)
inactive: [1] 0.002 | [2] -0.006 | [3] 0.019 | [4] -0.02 | [5] 0.162

UBE2L6 (UniProt O14933)
inactive: [1] -0.01 | [2] 0 | [3] -0.068 | [4] 0.032 | [5] 0.008

TXNL4A (UniProt P83876)
inactive: [1] 0.036 | [2] -0.024 | [3] 0.046 | [4] -0.001 | [5] -0.01

UCK1 isoform 4 (UniProt Q9HA47)
inactive: [1] 0.032 | [2] -0.083 | [3] -0.013 | [4] 0.129 | [5] 0.001

UBTF (UniProt P17480)
inactive: [1] -0.031 | [2] 0.028 | [3] -0.012 | [4] 0.007 | [5] 0.069

U2AF1 isoform 2 (UniProt Q01081)
inactive: [1] 0.036 | [2] -0.007 | [3] -0.026 | [4] -0.039 | [5] 0.084
